# Experimental data published in PubChem BioAssay AID504467 (National Center for Advancing Translational Sciences (NCATS), 2011).
# Screen size: about 330,000 compounds; about 7,700 (2.3%) were called active. This list was built around the results that the source calls inconclusive (neither active nor inactive); the mix of calls is not that of the screen. The call rests on the fitted dose curve; in most records, active means well fitted inhibition curve with a large enough effect; inconclusive means small, poorly fitted or top-dose-only effect, or effect the other way; inactive means flat fitted curve, though single readings scatter. Potencies beside an inconclusive call are fits to weak or partial responses and may not hold up.
# Assay: qHTS screen for small molecules that inhibit ELG1-dependent DNA repair in human embryonic kidney (HEK293T) cells expressing luciferase-tagged ELG1; further: nearly all actives have a fitted effect of over 55% in size
# Details: HEK293T ELG1-luciferase reporter, luminescence, 16 h, DNA damage induced by 5-fluorouridine; activity change, negative = inhibition: at 46.1 µM (top of the series)
# Outline: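 Cells (2,000 per well) received 5-fluorouridine plus test compound or DMSO and were incubated 16 hr at 37 °C, 5% CO2. Luciferase activity was read by luminescence 30 min after ONE-Glo addition; signal suppression marked inhibition of damage-induced ELG1 function.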
# On the % scale 0 is the no-effect control and ±100 the full control effect; potency means the concentration at half of the fitted maximal effect.
SMILES,Potency,"activity change, negative = inhibition"
COC(=O)c1ccc(NC(=O)CSc2nc3ccccc3c(=O)[nH]2)cc1,"inconclusive: 29.1 µM [activator, single point]",–
CCN(CC)S(=O)(=O)c1cnccc1N1CCN(c2cccc(Cl)c2)CC1,"inconclusive: 25.9 µM [inhibitor, partial curve, poor fit]",–
CCC12CC3CC(C1)CC(C(=O)NNC(N)=O)(C3)C2,"inconclusive: 10.3 µM [activator, partial curve, poor fit]",–
Cc1c(C(=O)NC2CCN(Cc3ccccc3)C2)oc2c(Cl)cccc12 (stereo unspecified),–,inactive: 2.44%
Cc1cccc(N2N=C(C(=O)Nc3ccc(Cl)c(S(=O)(=O)N4CCOCC4)c3)CCC2=O)c1,"inconclusive: 20.6 µM [inhibitor, single point]",–
Fc1cccc(CSc2ccc(-c3ccc4c(c3)OCO4)nn2)c1,"inconclusive: 18.4 µM [activator, single point]",–
O=C(Nc1nc(-c2nc3ccccc3s2)cs1)C1COc2ccccc2O1 (stereo unspecified),"inconclusive: 20.6 µM [activator, partial curve]",–
COc1ccc(-n2nc(C(=O)NCC(=O)N3CCCC(C)C3)c3ccccc3c2=O)cc1Cl (stereo unspecified),"inconclusive: 9.2 µM [inhibitor, partial curve]",–
Cc1ccc(CSCC(=O)N/N=C/c2ccc(OCC(=O)Nc3ccc(C)cc3)cc2)cc1,"inconclusive: 29.1 µM [inhibitor, partial curve, poor fit]",–
CCN1CCc2c(OCc3ccc(C)cc3)cccc2C1=O,"inconclusive: 25.9 µM [inhibitor, single point]",–
Cc1ccc(CNC(=O)CSc2nc3ccsc3c(=O)n2NC(=O)c2ccccc2)cc1,"inconclusive: 29.1 µM [activator, single point]",–
O=C(Cc1ccccc1)Nc1nc(=O)c2ccccc2s1,"inconclusive: 35.5 µM [activator, single point]",–
COc1ccc(C2=Nc3cc(C)ccc3OC2)cc1,"inconclusive: 2.06 µM [activator, partial curve]",–
Fc1ccc(-c2nnc(CN3CCC(c4nc5ccccc5s4)CC3)o2)cc1,"inconclusive: 16.4 µM [inhibitor, single point]",–
COc1ccc(N2C(=O)c3ccccc3NC2(C)C)cc1,"inconclusive: 18.3 µM [activator, partial curve]",–
NC[C@H](O)c1ccc(O)c(O)c1,"inconclusive: 2.51 µM [activator, partial curve, poor fit]",–
O=c1cc(C(Cl)(Cl)Cl)oc2c1ccc1ccccc12,–,inactive: 15.5%
Cc1cccn2c1nc(=S)n2C(=O)c1ccco1,"inconclusive: 3.26 µM [activator, partial curve]",–
O=C(c1ccccc1O)N1N=C(c2ccccc2)CC1(O)C(F)(F)F (stereo unspecified),"inconclusive: 29.1 µM [inhibitor, single point]",–
COc1cccc(NC(=O)C(=O)NCCc2ccc(F)cc2)c1,"inconclusive: 10.3 µM [activator, partial curve]",–
COc1ccc(CC(=O)OC(C)C(=O)c2ccc(C)cc2)cc1 (stereo unspecified),–,inactive: -21.8%
CC1(C)CC(=O)c2cc(C(=O)NNc3ccccc3)c(=O)n(-c3ccccc3)c2C1,"inconclusive: 29.1 µM [inhibitor, single point]",–

# Among those listed so far, these have nitrogen in an aromatic ring.
SMILES,Potency,"activity change, negative = inhibition"
COC(=O)c1ccc(NC(=O)CSc2nc3ccccc3c(=O)[nH]2)cc1,"inconclusive: 29.1 µM [activator, single point]",–
CCN(CC)S(=O)(=O)c1cnccc1N1CCN(c2cccc(Cl)c2)CC1,"inconclusive: 25.9 µM [inhibitor, partial curve, poor fit]",–
Fc1cccc(CSc2ccc(-c3ccc4c(c3)OCO4)nn2)c1,"inconclusive: 18.4 µM [activator, single point]",–
O=C(Nc1nc(-c2nc3ccccc3s2)cs1)C1COc2ccccc2O1 (stereo unspecified),"inconclusive: 20.6 µM [activator, partial curve]",–
COc1ccc(-n2nc(C(=O)NCC(=O)N3CCCC(C)C3)c3ccccc3c2=O)cc1Cl (stereo unspecified),"inconclusive: 9.2 µM [inhibitor, partial curve]",–
Cc1ccc(CNC(=O)CSc2nc3ccsc3c(=O)n2NC(=O)c2ccccc2)cc1,"inconclusive: 29.1 µM [activator, single point]",–
O=C(Cc1ccccc1)Nc1nc(=O)c2ccccc2s1,"inconclusive: 35.5 µM [activator, single point]",–
Fc1ccc(-c2nnc(CN3CCC(c4nc5ccccc5s4)CC3)o2)cc1,"inconclusive: 16.4 µM [inhibitor, single point]",–
Cc1cccn2c1nc(=S)n2C(=O)c1ccco1,"inconclusive: 3.26 µM [activator, partial curve]",–
CC1(C)CC(=O)c2cc(C(=O)NNc3ccccc3)c(=O)n(-c3ccccc3)c2C1,"inconclusive: 29.1 µM [inhibitor, single point]",–

# (listing goes on)

SMILES,Potency,"activity change, negative = inhibition"
CCOc1ccc(N2CC(C(=O)Nc3nnc(C4CCCCC4)s3)CC2=O)cc1 (stereo unspecified),–,inactive: -4.33%
C=C(C)CSc1nncn1/N=C/c1ccc(OC)cc1,"inconclusive: 31.6 µM [activator, single point]",–
CCC(C)NC(=O)CSc1nc2ccsc2c(=O)n1NC(=O)c1ccccc1 (stereo unspecified),"inconclusive: 16.4 µM [activator, partial curve]",–
Cc1ccccc1NS(=O)(=O)c1ccc(NC(=O)CSCc2ccc(Br)cc2)cc1,"inconclusive: 20.6 µM [inhibitor, partial curve]",–
O=C(Nc1ccccc1-c1nc2ccccc2s1)c1ccco1,"inconclusive: 25.9 µM [inhibitor, partial curve, poor fit]",–
CCOC(=O)c1sc(NC(=O)C2CC2)cc1C,–,inactive: 7.93%
C/C(=N\NC(=O)CC(C)C)c1ccc(N2CCCCC2)cc1,"inconclusive: 29.1 µM [activator, single point]",–
Cc1ccc(-n2ncc3c(SCC(N)=O)ncnc32)cc1C,"inconclusive: 7.3 µM [activator, partial curve]",–
CCCCN1C(=O)/C(=C2\SC(N3CCCCC3)=NC2=O)c2ccccc21,"inconclusive: 3.98 µM [activator, partial curve, poor fit]",–
Cn1c(=O)n(C)c2cc(NC(=O)CSc3nc4ccccc4c(=O)[nH]3)ccc21,"inconclusive: 29.1 µM [activator, single point]",–
O=C(OCc1ccc([N+](=O)[O-])cc1)c1cc([N+](=O)[O-])ccc1N1CCOCC1,"inconclusive: 18.3 µM [inhibitor, single point]",–
COc1ccc(NC(=O)c2cccc(OC(F)F)c2)cc1Cl,"inconclusive: 3.26 µM [activator, partial curve]",–
Cc1cc(NC(=O)c2c(-c3c(F)cccc3Cl)noc2C)no1,"inconclusive: 29.1 µM [inhibitor, single point]",–
CCn1cnc2cc(NCc3ccccc3Cl)ccc21,"inconclusive: 18.3 µM [activator, partial curve]",–
Cc1ccc(/C=C(\NC(=O)c2ccccc2)C(=O)OCc2ccccc2)cc1,–,inactive: -1.92%
O=S(=O)(c1ccc2c(c1)OCCO2)N1CCN(S(=O)(=O)c2ccccn2)CC1,–,inactive: 10.8%
CN1CCc2c(sc(/N=C/c3cc(Cl)ccc3O)c2C#N)C1,"inconclusive: 16.4 µM [activator, partial curve]",–
Fc1ccc(CSc2ncnc3ccccc23)cc1,–,inconclusive: 5.8% [activator]
CCCNC(=O)c1ccccc1NC(=O)c1ccc(CSc2ccccc2)cc1,"inconclusive: 20.6 µM [activator, single point]",–
COc1ccc(CCNc2nc(N3CCOCC3)nc(N3CCOCC3)n2)cc1OC,"inconclusive: 29.1 µM [inhibitor, single point]",–
O=C(NCc1ccc(F)cc1F)Nc1cnccc1C(F)(F)F,"inconclusive: 16.4 µM [inhibitor, partial curve]",–
Nn1c(SCC(=O)NCC2CCCO2)nnc1-c1ccc(OC(F)F)cc1 (stereo unspecified),"inconclusive: 13 µM [activator, partial curve, poor fit]",–

# 2 entries picked at random from the list so far, as already listed:
SMILES,Potency,"activity change, negative = inhibition"
Cc1ccccc1NS(=O)(=O)c1ccc(NC(=O)CSCc2ccc(Br)cc2)cc1,"inconclusive: 20.6 µM [inhibitor, partial curve]",–
C/C(=N\NC(=O)CC(C)C)c1ccc(N2CCCCC2)cc1,"inconclusive: 29.1 µM [activator, single point]",–

# Remaining list, next part:

SMILES,Potency,"activity change, negative = inhibition"
Clc1nc(Nc2ccccc2)nc(Nc2ccccc2)n1,–,inactive: 5.62%
N#Cc1c(/N=C/C=C/c2ccccc2)sc2c1CCCC2,"inconclusive: 8.2 µM [activator, partial curve, poor fit]",–
CC1=NNC(=O)/C1=C\c1cn(-c2ccccc2)nc1-c1cccs1,"inconclusive: 29.1 µM [inhibitor, single point]",–
O=C(NCCOC(=O)c1ccc(Cl)c(S(=O)(=O)N2CCCCC2)c1)c1ccncc1,"inconclusive: 23.1 µM [inhibitor, single point]",–
Cc1nn(-c2ccccc2)c2sc(C(=O)N(CC(=O)NC3CCCC3)Cc3ccco3)cc12,"inconclusive: 20.6 µM [inhibitor, single point]",–
CC(C)NC(=S)NC(=O)/C=C/c1ccc(F)cc1,–,inactive: -5.03%
O=C(O)CCC(=O)CCC(=O)c1ccccc1,"inconclusive: 0.82 µM [activator, partial curve, poor fit]",–
Cc1ccc(C)c(S(=O)(=O)Nc2ccccc2C(=O)Nc2ccccc2N2CCOCC2)c1,"inconclusive: 23.1 µM [inhibitor, partial curve, poor fit]",–
Cc1nc2ccc(NC(=O)c3cc(Cl)ccn3)cc2s1,"inconclusive: 2.91 µM [activator, full curve]",–
Cc1ccc(SCC(=O)Nc2cc(S(=O)(=O)N3CCCCC3)ccc2C)cc1,"inconclusive: 23.1 µM [inhibitor, single point]",–
Nc1cc(C(F)(F)F)ccc1Nc1ccccc1,"inconclusive: 18.3 µM [activator, single point]",–
Cc1ccc2c(=O)cc(C(F)F)oc2c1,–,inactive: 29.2%
CC(C)CNC(=O)c1ccccc1NC(=O)CN(c1ccc2c(c1)OCCO2)S(C)(=O)=O,–,inactive: -17.4%
CC(=O)C1=NN(c2ccccc2)C2(S1)S/C(=C\c1ccccc1)C(=O)N2c1ccccc1 (stereo unspecified),–,inactive: -4.83%
Cc1ccc(-n2nnnc2SCCNS(=O)(=O)c2ccccc2)cc1C,"inconclusive: 29.1 µM [inhibitor, partial curve, poor fit]",–
CCCOP(=O)(OCCC)C(Nc1cccc(C(F)(F)F)c1)c1ccc(C)cc1 (stereo unspecified),–,inactive: -25.4%
CCCCc1ccc(NC(=O)CN(C)CC(=O)Nc2ccccc2Cl)cc1,"inconclusive: 13 µM [inhibitor, partial curve, poor fit]",–
O=C(N/N=C/c1c[nH]c2ccccc12)c1cc(Cl)ccc1O,"inconclusive: 9.2 µM [activator, partial curve]",–
COc1cc2[nH]c(C(=O)N(C)Cc3ccccc3)cc2c(OC)c1OC,"inconclusive: 32.6 µM [inhibitor, single point]",–
CCCNC(=O)OCCC12CC3CC(CC(C3)C1)C2,"inconclusive: 18.4 µM [activator, partial curve]",–
CCOC(=O)N1CCN(C(=O)c2cc3c(=O)n(C)c4ccccc4c3n2C)CC1,"inconclusive: 13 µM [inhibitor, partial curve, poor fit]",–
CC(C)Cc1nnc(NC(=O)CC(=O)Nc2ccccc2C(=O)O)s1,"inconclusive: 29.1 µM [activator, single point]",–
